Results are given in words; binding and its absence hold for the method and conditions named. Binding seen in cells or lysates may run through a third protein. Some binding calls cover weakened binding; strength is not graded here.
Biological target: cdc42 (human) (UniProt P60953)
Test: co-immunoprecipitation with anti-FGD5 antibody from lysates of FGD5 overexpressing HUVECs, western blot

Chains of the proteins cited; added tags and fusions are not shown. Residues count along the entry.
UniProt P60953, residues 1-188: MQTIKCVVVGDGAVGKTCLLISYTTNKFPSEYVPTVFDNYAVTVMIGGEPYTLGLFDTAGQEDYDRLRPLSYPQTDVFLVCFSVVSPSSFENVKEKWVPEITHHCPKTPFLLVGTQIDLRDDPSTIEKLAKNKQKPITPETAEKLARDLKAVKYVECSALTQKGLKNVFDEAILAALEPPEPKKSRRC
UniProt Q6ZNL6: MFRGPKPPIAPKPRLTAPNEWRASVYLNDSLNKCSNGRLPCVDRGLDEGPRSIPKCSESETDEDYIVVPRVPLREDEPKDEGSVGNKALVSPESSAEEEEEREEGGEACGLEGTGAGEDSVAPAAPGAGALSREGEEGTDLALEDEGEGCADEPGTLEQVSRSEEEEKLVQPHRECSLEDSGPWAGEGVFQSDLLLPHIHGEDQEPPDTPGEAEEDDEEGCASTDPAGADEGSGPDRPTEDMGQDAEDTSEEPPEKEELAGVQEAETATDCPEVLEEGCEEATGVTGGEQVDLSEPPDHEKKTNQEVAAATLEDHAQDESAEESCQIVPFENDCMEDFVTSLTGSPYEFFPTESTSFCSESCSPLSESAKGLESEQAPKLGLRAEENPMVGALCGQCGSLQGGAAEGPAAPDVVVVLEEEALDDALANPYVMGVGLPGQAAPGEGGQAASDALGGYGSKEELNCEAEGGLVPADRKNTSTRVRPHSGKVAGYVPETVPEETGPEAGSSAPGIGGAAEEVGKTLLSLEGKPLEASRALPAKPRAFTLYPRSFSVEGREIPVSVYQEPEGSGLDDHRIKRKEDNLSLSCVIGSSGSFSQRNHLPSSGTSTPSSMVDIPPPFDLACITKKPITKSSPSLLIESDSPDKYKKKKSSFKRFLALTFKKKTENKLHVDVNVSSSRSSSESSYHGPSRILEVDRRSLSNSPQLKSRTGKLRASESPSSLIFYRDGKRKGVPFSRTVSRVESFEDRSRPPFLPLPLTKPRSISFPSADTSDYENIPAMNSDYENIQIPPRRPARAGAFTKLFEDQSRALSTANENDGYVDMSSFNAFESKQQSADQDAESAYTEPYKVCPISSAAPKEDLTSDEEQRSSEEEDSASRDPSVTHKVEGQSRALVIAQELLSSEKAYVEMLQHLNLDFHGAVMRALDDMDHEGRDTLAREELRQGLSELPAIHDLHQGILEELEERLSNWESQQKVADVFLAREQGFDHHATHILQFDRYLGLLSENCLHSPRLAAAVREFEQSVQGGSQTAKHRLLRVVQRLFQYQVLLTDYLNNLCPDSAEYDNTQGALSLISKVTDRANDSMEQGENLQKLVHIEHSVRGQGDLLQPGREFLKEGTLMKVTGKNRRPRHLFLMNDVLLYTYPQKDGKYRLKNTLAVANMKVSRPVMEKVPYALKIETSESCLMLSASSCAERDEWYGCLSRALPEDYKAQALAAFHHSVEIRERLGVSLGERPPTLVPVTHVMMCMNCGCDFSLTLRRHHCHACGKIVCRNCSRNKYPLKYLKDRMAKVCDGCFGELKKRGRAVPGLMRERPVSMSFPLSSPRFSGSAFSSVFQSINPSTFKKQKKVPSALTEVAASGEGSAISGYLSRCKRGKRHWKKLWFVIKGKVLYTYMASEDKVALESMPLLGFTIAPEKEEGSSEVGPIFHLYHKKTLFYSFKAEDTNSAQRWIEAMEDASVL

binding: binds
Substance: FYVE, RhoGEF and PH domain-containing 5 (FGD5) (from UniProt Q6ZNL6 1-1462) (enzyme)

Reference: patent publication US20120277144A1
